The supplement of paper PMC7580552
Where a name gives a salt, the structure may show the parent alone. The list shows a part of the results. Baselines shift from plate to plate; read single values as rough.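 Biofilm, quantified by the absorbance of well-retained crystal violet, is assayed using the K-12 laboratory model grown unshaken in 96-well plates. Candidate specific biofilm inhibitors were drugs that sharply lowered staining yet reduced free-floating growth by less than 70%.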

Each compound was assayed on Escherichia coli W3110 (assay: biofilm formation (crystal violet staining) relative to untreated control; higher = more biofilm). Conditions: 10 µM; 20-24 h; 30 °C; TB.
With CN(C)CCn1nnnc1SCC1=C(C(=O)O)N2C(=O)[C@@H](NC(=O)Cc3csc(N)n3)[C@H]2SC1 [Cefotiam hydrochloride] the biofilm formation was 12%. CC(=O)N[C@@H](CS)C(=O)O [Acetylcysteine] was tested, and the biofilm formation was 100%. CC(=O)O[C@H]1C[C@@]2(C)[C@@H](C[C@@H](O)[C@H]3[C@@]4(C)CC[C@@H](O)[C@@H](C)[C@@H]4CC[C@@]32C)/C1=C(\CCC=C(C)C)C(=O)O [Fusidic acid sodium salt] was tested, and the biofilm formation was 115%. CCN(CC)CCOC(=O)c1ccc(N)cc1 [Procaine hydrochloride] was tested, and the biofilm formation was 98%. CC[C@H](C)C(=O)O[C@H]1C[C@@H](C)C=C2C=C[C@H](C)[C@H](CC[C@@H]3C[C@@H](O)CC(=O)O3)[C@H]21 [Lovastatin] showed a biofilm formation of 69%. Work on Cc1c(C)c2c(c(C)c1O)CCC(C)(C(=O)O)O2 (centres undefined) [Trolox] yielded a biofilm formation of 91%. CCCCNc1cc(C(=O)O)cc(S(N)(=O)=O)c1Oc1ccccc1 [Bumetanide] showed a biofilm formation of 43%. Compound CNC(=O)c1c(I)c(C(=O)NCC(=O)Nc2c(I)c(C(=O)O)c(I)c(C(=O)NCCO)c2I)c(I)c(N(C)C(C)=O)c1I [Ioxaglic acid] has a biofilm formation of 74%. CC(=O)Oc1ccccc1C(=O)Oc1ccccc1C(=O)O [Acetylsalicylsalicylic acid] showed a biofilm formation of 50%. CC(C)n1c(/C=C/C(O)CC(O)CC(=O)O)c(-c2ccc(F)cc2)c2ccccc21 (centres undefined) [Fluvastatin sodium salt] showed a biofilm formation of 71%. In the case of NC(=O)OCC(COC(N)=O)c1ccccc1 [Felbamate], the biofilm formation is reported as 74%. Compound C[C@H]1NC(=O)NC1=O [Methylhydantoin-5-(D)] has a biofilm formation of 61%. Cc1ccnc(NS(=O)(=O)c2ccc(N)cc2)n1 [Sulfamerazine] was tested, and the biofilm formation was 35%. Work on N=C(N)NCc1cccc(I)c1 [Iobenguane sulfate] yielded a biofilm formation of 89%. In the case of Nc1ccc(S(=O)(=O)Nc2cnc3ccccc3n2)cc1 [Sulfaquinoxaline sodium salt], the biofilm formation is reported as 53%. Compound CNC[C@H](O)[C@@H](O)[C@H](O)[C@H](O)CO [Meglumine] has a biofilm formation of 70%. NCCCC(O)(P(=O)(O)O)P(=O)(O)O [Alendronate sodium] showed a biofilm formation of 95%. NS(=O)(=O)c1cc(Cl)c(Cl)c(S(N)(=O)=O)c1 [Dichlorphenamide] gave a biofilm formation of 82%. Work on CCCCCNC(=N)N/N=C/c1c[nH]c2ccc(OC)cc12 [Tegaserod maleate] yielded a biofilm formation of 41%. Work on CCN1CCCC(OC(=O)C(c2ccccc2)c2ccccc2)C1 (centres undefined) [Piperidolate hydrochloride] yielded a biofilm formation of 65%. For CN(C)CCCSC(=N)N [Dimaprit dihydrochloride], the biofilm formation was 72%. C[C@H](Cc1cc2c(c(C(N)=O)c1)N(CCCO)CC2)NCCOc1ccccc1OCC(F)(F)F [Silodosin] showed a biofilm formation of 83%. Cc1onc(-c2c(F)cccc2Cl)c1C(=O)N[C@@H]1C(=O)N2[C@@H]1SC(C)(C)[C@@H]2C(=O)O [Flucloxacillin sodium] gave a biofilm formation of 81%. O=C(NCCN1CCOCC1)c1ccc(Cl)cc1 [Moclobemide] showed a biofilm formation of 51%. Compound CC(=O)CCCCn1c(=O)c2c(ncn2C)n(C)c1=O [Pentoxifylline] has a biofilm formation of 63%. With CN1C(=O)OC(C)(C)C1=O [Trimethadione] the biofilm formation was 76%. With CN(C/C=C/c1ccccc1)Cc1cccc2ccccc12 [Naftifine hydrochloride] the biofilm formation was 64%. OCCN1CCN(CCCN2c3ccccc3C=Cc3ccccc32)CC1 [Opipramol dihydrochloride] gave a biofilm formation of 59%. CC(C)NC[C@H](O)COc1cccc2ccccc12 [(S)-propranolol hydrochloride] was tested, and the biofilm formation was 88%. For C[C@@H](O)[C@H]1C(=O)N2C(C(=O)O)=C(S[C@@H]3CN[C@H](C(=O)N(C)C)C3)[C@H](C)[C@H]12 [Meropenem], the biofilm formation was 11%. With CC(=O)O[C@H]1C[C@@H]2CC[C@@H]3[C@H](CC[C@@]4(C)[C@H]3C[C@H]([N+]3(C)CCCCC3)[C@@H]4OC(C)=O)[C@@]2(C)C[C@@H]1N1CCCCC1 [Vecuronium bromide] the biofilm formation was 68%. C[C@]12C=CC(=O)C=C1CC[C@H]1[C@@H]3C[C@@H](O)[C@](O)(C(=O)CO)[C@@]3(C)C[C@H](O)[C@@]12F [Triamcinolone] gave a biofilm formation of 67%. CC1(C)O[C@@H]2C[C@H]3[C@@H]4CCC5=CC(=O)CC[C@]5(C)[C@@]4(F)[C@@H](O)C[C@]3(C)[C@]2(C(=O)CCl)O1 [Halcinonide] was tested, and the biofilm formation was 70%. Compound CCN(CC)C(=O)/C(C#N)=C/c1cc(O)c(O)c([N+](=O)[O-])c1 [Entacapone] has a biofilm formation of 85%. OC(c1cc(C(F)(F)F)nc2c(C(F)(F)F)cccc12)C1CCCCN1 (centres undefined) [Mefloquine hydrochloride] gave a biofilm formation of 46%. Work on CNCCCC12CCC(c3ccccc31)c1ccccc12 [Maprotiline hydrochloride] yielded a biofilm formation of 61%. Work on C[C@@H]1C[C@H]2[C@@H]3C[C@H](F)C4=CC(=O)C=C[C@]4(C)[C@@]3(Cl)[C@@H](O)C[C@]2(C)[C@H]1C(=O)COC(=O)C(C)(C)C [Clocortolone pivalate] yielded a biofilm formation of 103%. In the case of Nc1nc2c(ncn2COCCO)c(=O)[nH]1 [Acyclovir], the biofilm formation is reported as 54%. With CCCCCN(CCCCC)C(=O)C(CCC(=O)O)NC(=O)c1ccc(Cl)c(Cl)c1 (centres undefined) [Lorglumide sodium salt] the biofilm formation was 42%. Compound CC(C)(C)NC(=O)[C@@H]1C[C@@H]2CCCC[C@@H]2CN1C[C@@H](O)[C@H](Cc1ccccc1)NC(=O)[C@H](CC(N)=O)NC(=O)c1ccc2ccccc2n1 [Saquinavir mesylate] has a biofilm formation of 106%. COc1ncnc(NS(=O)(=O)c2ccc(N)cc2)c1OC [Sulfadoxine] was tested, and the biofilm formation was 39%. Work on CC(=O)OCC(=O)[C@@]1(O)[C@H](C)C[C@H]2[C@@H]3CCC4=CC(=O)C=C[C@]4(C)[C@@]3(F)[C@@H](O)C[C@@]21C [Dexamethasone acetate] yielded a biofilm formation of 85%. In the case of COc1c(N2C[C@@H]3CCCN[C@@H]3C2)c(F)cc2c(=O)c(C(=O)O)cn(C3CC3)c12 [Moxifloxacin], the biofilm formation is reported as 23%. In the case of COc1ccc(C(=O)c2ccccc2)c(O)c1 [Oxybenzone], the biofilm formation is reported as 55%. In the case of COc1ccc(C(=O)CC(=O)c2ccc(C(C)(C)C)cc2)cc1 [Avobenzone], the biofilm formation is reported as 68%. For CCOC(=O)C1=C(C)NC(C)=C(C(=O)OCC)C1c1ccccc1/C=C/C(=O)OC(C)(C)C [Lacidipine], the biofilm formation was 83%. With CCOc1cc(CC(=O)N[C@@H](CC(C)C)c2ccccc2N2CCCCC2)ccc1C(=O)O [Repaglinide] the biofilm formation was 66%. For C#C[C@]1(O)CC[C@H]2[C@@H]3CCc4cc(O)ccc4[C@H]3CC[C@@]21C [Ethinylestradiol], the biofilm formation was 77%. Work on CCCCN(CCCC)CCC(O)c1cc2c(Cl)cc(Cl)cc2c2cc(C(F)(F)F)ccc12 (centres undefined) [Halofantrine hydrochloride] yielded a biofilm formation of 78%. With CC(C(=O)O)c1cccc(C(=O)c2ccccc2)c1 (centres undefined) [Ketoprofen] the biofilm formation was 76%. Compound CCCC1O[C@@H]2C[C@H]3[C@@H]4CCC5=CC(=O)C=C[C@]5(C)[C@H]4[C@@H](O)C[C@]3(C)[C@]2(C(=O)CO)O1 (some centres undefined) [Budesonide] has a biofilm formation of 87%. For CC1(C)S[C@@H]2[C@H](NC(=O)[C@H](C(=O)O)c3ccsc3)C(=O)N2[C@H]1C(=O)O [Ticarcillin sodium], the biofilm formation was 54%. Work on Cc1cc(NS(=O)(=O)c2ccc(N)cc2)no1 [Sulfamethoxazole] yielded a biofilm formation of 28%. Compound CN[C@@H]1[C@@H](O)[C@@H](O[C@@H]2[C@@H](O)[C@H](O[C@H]3OC(CN)=CC[C@H]3N)[C@@H](N)C[C@H]2N)OC[C@]1(C)O [Sisomicin sulfate] has a biofilm formation of 61%. O=C1CN(/N=C/c2ccc(-c3ccc([N+](=O)[O-])cc3)o2)C(=O)N1 [Dantrolene sodium salt] showed a biofilm formation of 82%. With CCOC(=O)n1ccn(C)c1=S [Carbimazole] the biofilm formation was 72%. C[C@H](N)[C@H](O)c1cccc(O)c1 [Metaraminol bitartrate] showed a biofilm formation of 70%. In the case of CCN(CC)CCOC(=O)C(Cc1cccc2ccccc12)CC1CCCO1 (centres undefined) [Nafronyl oxalate], the biofilm formation is reported as 81%. With Cc1ccccc1OCC(O)CO (centres undefined) [Mephenesin] the biofilm formation was 78%. O=C1CN(/N=C/c2ccc([N+](=O)[O-])o2)C(=O)N1 [Nitrofurantoin] gave a biofilm formation of 61%. Work on Nc1c2c(nc3ccccc13)CCCC2 [Tacrine hydrochloride] yielded a biofilm formation of 72%. Work on CCN(CC)C(=S)SSC(=S)N(CC)CC [Disulfiram] yielded a biofilm formation of 51%. With C/C(=C(\CCOP(=O)(O)O)SC(=O)c1ccccc1)N(C=O)Cc1cnc(C)nc1N [Benfotiamine] the biofilm formation was 70%. CC1(C)O[C@@H]2C[C@H]3[C@@H]4CCC5=CC(=O)C=C[C@]5(C)[C@H]4[C@@H](O)C[C@]3(C)[C@]2(C(=O)CO)O1 [Desonide] gave a biofilm formation of 98%. With CC[C@H]1OC(=O)C[C@@H](O)[C@H](C)[C@@H](O[C@@H]2O[C@H](C)[C@@H](O[C@H]3C[C@@](C)(O)[C@@H](O)[C@H](C)O3)[C@H](N(C)C)[C@H]2O)[C@@H](CC=O)C[C@@H](C)C(=O)/C=C/C(C)=C/[C@@H]1CO[C@@H]1O[C@H](C)[C@@H](O)[C@@H](OC)[C@H]1OC [Tylosin] the biofilm formation was 85%. In the case of O=C(CCCCCCC(=O)Nc1ccccc1)NO [Vorinostat], the biofilm formation is reported as 83%. In the case of COC(=O)C1=C(C)NC(C)=C(C(=O)OC2CCCN(Cc3ccccc3)C2)C1c1cccc([N+](=O)[O-])c1 (centres undefined) [Benidipine hydrochloride], the biofilm formation is reported as 56%. Compound CCNC(=O)CCC/C=C\C[C@@H]1[C@@H](/C=C/[C@@H](O)CCc2ccccc2)[C@H](O)C[C@@H]1O [Bimatoprost] has a biofilm formation of 92%. C[C@]12C[C@H](O)[C@H]3[C@@H](CCC4=CC(=O)CC[C@@]43C)[C@@H]1CC[C@@H]2C(=O)CO [Corticosterone] showed a biofilm formation of 81%.
